Results reported in PubChem BioAssay AID1347426 (Functional Genomics Laboratory (NCATS/FGL), 2020).
Hit rate of the full screen: of about 31,000 sequences, about 1,400 (4.5%) were called active.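 The calls were made as follows: active = median seed-adjusted z-score above 1 or below -1; inactive = the rest.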 The list shows a part of the results.

assay: Novel Modifiers of Survival Motor Neuron (SMN) Protein: Gene Identification via Genome-wide siRNA Screen; conditions: HEK293T SMN2-luciferase reporter, siRNA knockdown, 72 h; actives lie on both sides
Summary of the method: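 Each of three siRNAs per gene is reverse-transfected (1 pmol) into reporter HEK293T cells whose luciferase output tracks SMN protein level. After 72 h culture, ONE-Glo luminescence is control-normalized, log10-transformed and MAD-standardized; Common Seed Analysis deprioritizes seed-driven hits.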

| Sequence | median seed-adjusted z-score |
| --- | --- |
| GACCUGUACUUUGAGAACATT against MMEL1 | inactive: 0.325 |
| CAGUUGAUUUAAGAGGUAATT against PRPF4B | active: -2.29 |
| GCAAGAAUCAGACCCAAUUTT against GLRA3 | inactive: 0.0585 |
| CGAUACGUCUUUACAAGAATT against INPP4A | inactive: 0.379 |
| CCUCGUUCCUCUACUGCAATT against PCDH9 | inactive: 0.165 |
| CAAGAGCACUUAGUGCACATT against USP45 | inactive: -0.203 |
| GGCUGUUCAUUGAUUGAGATT against GPR61 | inactive: 0 |
| CAACCGGACGUACCACUUUTT against DDEFL1 | inactive: 0.293 |
| GGAGUGAAGUAAAACGGGATT against ITSN2 | inactive: 0.933 |
| CUGGCUCUGUUUGUCCUCATT against SLC28A1 | inactive: 0.129 |
| GACUCUCAAUAAUCAUCAATT against ZNF157 | inactive: 0.137 |
| GGUUAGAACAAGAGGUAAATT against ROCK1 | inactive: -0.306 |
| CCACUACCAGAUCUAUUCUTT against PIK3R4 | inactive: -0.502 |
| CGACCCAACUACAACGUGATT against DNAJC6 | inactive: -0.265 |
| CCGUUAAUAUAUACGAUGATT against TPP2 | inactive: -0.562 |
| GAGGAAUUCUUAAACCAGUTT against MAPK7 | inactive: -0.0118 |
| CCUUUGAAGAUUUACGAGATT against NEDD4L | inactive: 0.212 |
| CUACUUAAUUGGGUGUAUATT against SLC9A10 | inactive: -0.0418 |
| CGAGGGACAGUUCAACUGATT against IL13 | inactive: 0.435 |
| AGUAUACGCUGCCCUCAUATT against RNASE3 | inactive: 0.588 |
| GGAGAGCUGUUGGUACUUUTT against TAAR9 | active: -1.07 |
| GCAGAGUUUCUUCAUCGAATT against DOCK11 | inactive: 0.293 |

Reformatted as labelled records: entries from further up.
GGCUGUUCAUUGAUUGAGATT against GPR61
  median seed-adjusted z-score: inactive: 0
CAACCGGACGUACCACUUUTT against DDEFL1
  median seed-adjusted z-score: inactive: 0.293
GGUUAGAACAAGAGGUAAATT against ROCK1
  median seed-adjusted z-score: inactive: -0.306
CCGUUAAUAUAUACGAUGATT against TPP2
  median seed-adjusted z-score: inactive: -0.562

Following part:

| Sequence | median seed-adjusted z-score |
| --- | --- |
| CAGCUAUAGCAGUAUAAGATT against PTPRK | inactive: 0 |
| GCUCUUCGGGAGAAUCUUUTT against CTNNAL1 | inactive: 0.229 |
| AACCUAUCGUCACAACUUATT against ZNF492 | inactive: 0.0668 |
| GCUGAACAACGACUGCUCCTT against LYPD1 | inactive: -0.0713 |
| GGAUUUUGCCUUAGCGGUATT against OSBPL8 | inactive: 0.231 |
| GAUCUACACUUGGAUGGAUTT against SAP18 | active: 2.14 |
| AGACCUCGGUUAAAAACAATT against RAB42 | inactive: 0.241 |
| GGAUGAUGGAGAAGACUCATT against CPSF2 | inactive: 0.0263 |
| CUACUGAAGUAUACGUAAATT against CD47 | inactive: 0.0241 |
| GCAUCGUUGGGAAACGAAATT against INADL | inactive: 0.53 |
| CCUAUAAGAUGUGCACGGATT against HMG20B | inactive: 0.231 |
| AUUUCUCUGUGAAGACAAATT against FCGR3A | inactive: 0.0786 |
| GGGUCAAUCAGACUCUUAATT against PLS1 | inactive: -0.0715 |
| CUGCUGCGCCUGUACUUCATT against CD151 | inactive: -0.0305 |
| GGGCACCACCAUUAAGAAATT against SLC7A7 | inactive: 0.209 |
| GGCUAUUGAUUGUCCACAUTT against L2HGDH | inactive: -0.346 |
| ACAUGAUCAUCAGUGUGAATT against FABP4 | inactive: 0.227 |
| ACCAUUUAAUGUUCUCUAUTT against PA2G4 | inactive: -0.803 |
| CACUCUCUACAAUCCGUAATT against EGR2 | inactive: -0.37 |
| GCUCUAACCUCAAUACCCATT against ZSCAN20 | inactive: -0.099 |
| GCUGUCACUUAAUAAUCAATT against KLK11 | inactive: 0.0411 |
| GAUAAUGGAAGGUGAAUUUTT against PMS2L3 | inactive: 0.175 |

Quoted from the listing.
Entry for CAGCUAUAGCAGUAUAAGATT against PTPRK under median seed-adjusted z-score: inactive: 0
Entry for AACCUAUCGUCACAACUUATT against ZNF492 under median seed-adjusted z-score: inactive: 0.0668

(listing goes on)

| Sequence | median seed-adjusted z-score |
| --- | --- |
| GGAUGUUCACAACCGAAUUTT against CTNNB1 | inactive: 0.0802 |
| GAGCGUGACUGGGUUCUAATT against DDX5 | inactive: 0.891 |
| GGCUCCCUCUUUGUCCUUATT against ZDHHC19 | inactive: 0.0354 |
| CUCCUGGAGUUUUCUCUAATT against ABCG5 | inactive: 0.739 |
| GGUUUAGAGAGAUCGUAAATT against EMR3 | inactive: 0.169 |
| GGGAAUAGCUGGGCUGAGATT against AKR7A2 | inactive: 0.192 |
| GCAUAGUAGUACUAAUUAUTT against ZNF148 | inactive: 0.307 |
| CCAUGUUGCUCCCUAUUUUTT against TSHB | inactive: -0.247 |
| GACUGUUCCUAUACUAGUATT against DBT | inactive: -0.976 |
| GGAUGGCAGGGAUUCCGAATT against ZNF213 | active: 1.37 |
| GUAUUGUCAUAUCUUGAUATT against MTA3 | inactive: 0.342 |
| GGUUAUACAUCAUUGGGUATT against PHCA | inactive: 0.0568 |
| GAAGCACAUUGUUUCCAGATT against SERGEF | inactive: -0.308 |
| GCCUGAGAAAUUCACGAAATT against OGFOD1 | inactive: 0.442 |
| CCACAUCUGUGGAUAUCAUTT against CDH17 | inactive: -0.167 |
| UGGACAACUUUGUACCUAATT against EBP | inactive: 0.017 |
| GGAGAUCUAUACUUCGCAATT against CHL1 | inactive: 0.1 |
| CUGUGGAAAUUUUAAGGGATT against ACSM3 | inactive: 0.281 |
| GAAGAUCUAUGGUUGACUATT against GLUD1 | inactive: 0.156 |
| GAGGCACAACAGAAGUUCATT against HAT1 | inactive: -0.622 |
| GGAGGAAUGUUACACGGCUTT against ITGB1 | inactive: 0 |
| CAGACAAGGUUCAACCGAATT against ORC2L | inactive: -0.101 |

| Sequence | median seed-adjusted z-score |
| --- | --- |
| GAAAUUUGCGUGUGGAGUATT against TP53 | inactive: 0.214 |
| CCAUGACUGUUGAGGUAGATT against AKAP12 | inactive: -0.104 |
| AGGAGACACUGCGACCGUATT against KCNQ4 | inactive: 0.583 |
| CACCUGAACUACCAAAAGATT against KLF11 | inactive: 0.158 |
| CUACCGAUUUGGGACCCAATT against SLC5A6 | inactive: 0.994 |
| GUGAUGACAUGGAUCUAGATT against ZSCAN29 | inactive: 0.193 |
| GUCUUGUACAAGGAAGUAATT against ZNF577 | inactive: -0.756 |
| GGAAGAGAACUGGAAGUUUTT against STARD3 | inactive: -0.314 |
| GGAAAAGUAUGAACUGAAATT against TREM1 | inactive: 0 |
| GGCUCCGUGCUUGUCCUUATT against SPR | inactive: 0.0329 |
| GAAUAGUCUCUAUUCAACATT against ZNF292 | inactive: -0.481 |
| GAAGCUAGGUAUAACCGGATT against PTAR1 | inactive: -0.507 |
| GUAGGUUGCUUAAAAGGGATT against APOC3 | inactive: 0.185 |
| CAACCCGAACUUUCCAGAATT against GUCA2A | inactive: 0.121 |
| GCCGAGGAAUGGUUCUUCATT against KRT14 | inactive: -0.127 |
| AGGGAAUUGUGGAGCAUGATT against GNA12 | inactive: 0.598 |
| GGACCGGGACUAUCAAUGATT against AEBP1 | inactive: -0.0536 |
| GCUUUCAACGGGAUUAUUATT against HNRNPCL1 | inactive: 0 |
| AGAUCUCCGUGCCUCCUGUTT against DPYSL4 | inactive: 0.71 |
| CAAGCUGACAUAUCAAGUATT against MUTYH | inactive: 0.024 |
| GACUGAUCCCUCUACUUCATT against SNTG1 | inactive: 0.167 |
| GCAAAUCAACAGUACGUUUTT against CARS2 | inactive: 0 |

| Sequence | median seed-adjusted z-score |
| --- | --- |
| CAAGAUUCUGUGGUAAAUATT against ZNF45 | inactive: 0.172 |
| GAAGAUUGGUUACGGCAUATT against ATP11B | inactive: 0.0036 |
| CUCUAUAUUUUCAACUGUATT against KCNV1 | inactive: 0.109 |
| GCUGUGGAUGGAUCGCAUATT against BTN3A1 | inactive: -0.198 |
| CUAUGGACUUCAUCGCUUUTT against EEF1E1 | active: -1.45 |
| GGAGGACCUCUGUACCUUUTT against ANKS1A | inactive: -0.0165 |
| GGAUCACUGUCCCAACAGATT against NUP214 | inactive: 0.074 |
| GGCUGUAUGAGCACCGUUATT against TGIF1 | inactive: 0.303 |
| CCCACUUAAUGAUAUGAUATT against OSBPL8 | inactive: 0.231 |
| CAAGGAACUAUGUACAAAATT against POU4F1 | inactive: -0.138 |
| GCAACAAUCAGAUCGCUGATT against SLIT1 | inactive: 0.12 |
| CGUGAAGCGGUAUGAGAAATT against RAP2A | inactive: -0.727 |
| CAGAGACACUUCUACGAAATT against BTN1A1 | inactive: 0.291 |
| GCACUUAAGGAAUGACAGATT against CDY2A | inactive: 0.75 |
| CGAACGAAGAAGAGCCGAATT against NFATC2 | inactive: 0.183 |
| CCAUCUCUACCGACGAAGATT against ARHGEF1 | inactive: -0.0658 |
| CAAAUUCAAGGGCAUCAAATT against SNX33 | inactive: -0.246 |
| AGAUUGACAUCGCGGGAUATT against PDPR | inactive: -0.0653 |
| CAUGAUAUGUUUCACCGAATT against MYCBP2 | inactive: 0 |
